Values from PubChem BioAssay AID1259290 (Sanger Institute, 2017)

Assay: 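Kinases whose loss kills colorectal cancer cells alone or alongside targeted drugs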 (primary screen)
Cells: human SNUC1 colorectal cancer cells
Reagent: siRNA pool against human genes
Challenge: anchor drugs BYL719 1 µM, cetuximab 5 µg/ml or trametinib 10 nM, or DMSO vehicle alone
Measured: 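Cell viability relative to a non-targeting siRNA control, replicate-averaged, as robust z-score for knock-down alone, plus a synergy score for each anchor drug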
Scale: viability z-score, siRNA alone: higher = more viable cells; low values mean essential gene; viability vs control, siRNA alone: higher = more viable cells; synergy score with BYL719 and synergy score with Cetuximab: higher = stronger synthetic lethal effect with drug
Call rule: 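a knock-down without drug scoring a robust z under -3 counts as essential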
Calls: active = essential: knock-down alone cut viability (z below -3); inactive = no clear viability loss with knock-down alone
Shown is a random part of 794 reagents. 9 of them (1.1%) were called active. 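Calls rest on knock-down alone, not drug synergy; synergy above 0.15 was grouped apart and does not affect calls.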 No viability above 1 is reported: the scale is capped. Not all columns of the deposit are shown. Reagent sequences are not shown. Not stated in the record: the amount of reagent, the time to read-out.

gene symbol | viability z-score, siRNA alone | viability vs control, siRNA alone | synergy score with BYL719 | synergy score with Cetuximab | outcome
CDK3 | 0.587 | 0.968 | -0.223 | -0.0748 | inactive
LCK | 0.936 | 1 | -0.198 | -0.0293 | inactive
NTRK3 | 0.936 | 1 | 0.0299 | -0.0197 | inactive
CERK | -1.22 | 0.806 | -0.139 | -0.0862 | inactive
RUNX1 | -1.42 | 0.788 | -0.19 | 0.00899 | inactive
PKDCC | 0.936 | 1 | -0.045 | 0.0118 | inactive
TP53BP1 | -0.548 | 0.866 | -0.305 | 0.0551 | inactive
MAPK15 | 0.936 | 1 | -0.198 | -0.0447 | inactive
MAP4K1 | -1.83 | 0.75 | 0.0364 | -0.267 | inactive
EFNA4 | 0.936 | 1 | -0.1 | -0.0447 | inactive
PRKAA2 | 0.0633 | 0.921 | -0.174 | -0.0724 | inactive
DGKH | -0.396 | 0.88 | 0.0294 | 0.0705 | inactive
FBXW7 | 0.85 | 0.992 | -0.0725 | -0.0522 | inactive
PRKCSH | -1.41 | 0.789 | -0.163 | -0.0641 | inactive
JAK3 | 0.936 | 1 | -0.198 | -0.0442 | inactive
SNRK | -0.514 | 0.869 | -0.23 | -0.115 | inactive
TYK2 | 0.302 | 0.943 | -0.0724 | 0.0509 | inactive
GUCY2C | 0.256 | 0.939 | -0.246 | -0.103 | inactive
BMP2K | 0.936 | 1 | -0.0825 | 0.0954 | inactive
CSNK2A1 | 0.936 | 1 | -0.175 | -0.0447 | inactive
LRRK1 | 0.936 | 1 | 0.0566 | 0.00702 | inactive
NME7 | 0.267 | 0.94 | 0.0456 | 0.045 | inactive
CKB | 0.347 | 0.947 | -0.0561 | 0.0476 | inactive
MAP3K11 | 0.926 | 0.999 | -0.185 | 0.086 | inactive
KCNH8 | 0.115 | 0.926 | -0.238 | -0.0329 | inactive
EPHA10 | -0.465 | 0.874 | -0.0846 | -0.0418 | inactive
ZAP70 | 0.936 | 1 | -0.0733 | -0.0447 | inactive
CDK20 | 0.936 | 1 | 0.011 | 0.0801 | inactive
FLT4 | -1.09 | 0.818 | -0.344 | -0.0605 | inactive
PRKAR1B | 0.936 | 1 | -0.111 | 0.0599 | inactive
VRK1 | 0.936 | 1 | -0.198 | -0.0447 | inactive
NUAK2 | -2.31 | 0.708 | -0.173 | -0.324 | inactive
ADK | 0.694 | 0.978 | -0.0556 | -0.0656 | inactive
EPHA6 | 0.936 | 1 | 0.137 | 0.0203 | inactive

Continued, starting with the last 6 of the part before.
gene symbol | viability z-score, siRNA alone | viability vs control, siRNA alone | synergy score with BYL719 | synergy score with Cetuximab | outcome
FLT4 | -1.09 | 0.818 | -0.344 | -0.0605 | inactive
PRKAR1B | 0.936 | 1 | -0.111 | 0.0599 | inactive
VRK1 | 0.936 | 1 | -0.198 | -0.0447 | inactive
NUAK2 | -2.31 | 0.708 | -0.173 | -0.324 | inactive
ADK | 0.694 | 0.978 | -0.0556 | -0.0656 | inactive
EPHA6 | 0.936 | 1 | 0.137 | 0.0203 | inactive
TRIB2 | 0.584 | 0.968 | -0.173 | -0.0751 | inactive
CNOT1 | -1.65 | 0.767 | -0.018 | 0.146 | inactive
ATRX | 0.936 | 1 | -0.0558 | -0.0447 | inactive
TCF7L2 | 0.936 | 1 | -0.198 | -0.0447 | inactive
RPS6KA4 | -0.212 | 0.897 | -0.141 | -0.02 | inactive
FOXP1 | 0.936 | 1 | 0.0953 | 0.169 | inactive
DYRK2 | 0.936 | 1 | -0.198 | -0.0447 | inactive
AURKA | 0.655 | 0.975 | 0.0486 | 0.122 | inactive
PKMYT1 | -0.0937 | 0.907 | -0.034 | 0.0151 | inactive
MAP3K15 | 0 | 0.916 | -0.265 | -0.0249 | inactive
PLK4 | -2.56 | 0.685 | -0.25 | -0.029 | inactive
FXN | 0.936 | 1 | -0.0239 | -0.0447 | inactive
COMMD3 | 0.936 | 1 | -0.159 | -0.0447 | inactive
EPHA3 | 0.936 | 1 | -0.124 | -0.0447 | inactive
MAPK4 | 0.936 | 1 | 0.0894 | 0.064 | inactive
GRK6 | -1.2 | 0.807 | -0.0481 | 0.0754 | inactive
CAMK4 | 0.716 | 0.98 | -0.214 | 0.0883 | inactive
MAP3K14 | -1.58 | 0.773 | -0.0442 | -0.117 | inactive
EIF2AK4 | -0.932 | 0.832 | -0.042 | 0.0296 | inactive
CHUK | 0.936 | 1 | -0.126 | 0.0958 | inactive
BRSK1 | 0.596 | 0.969 | -0.202 | -0.0277 | inactive
PANK2 | 0.936 | 1 | -0.0584 | -0.015 | inactive
ARID1A | 0.309 | 0.943 | -0.138 | 0.107 | inactive
RIPK2 | -0.559 | 0.865 | -0.154 | 0.00721 | inactive
DYRK1A | 0.936 | 1 | -0.127 | 0.00524 | inactive
MARK3 | -0.998 | 0.826 | -0.0315 | 0.00934 | inactive
CDK7 | 0.819 | 0.989 | -0.207 | -0.0548 | inactive
STK11 | -1.18 | 0.809 | -0.135 | -0.0989 | inactive
CRIM1 | 0.0325 | 0.919 | -0.0466 | -0.0097 | inactive
